Measurements as given in PubChem BioAssay AID588497 (NMMLSC, 2011).
The whole screen tested about 360,000 compounds, of which about 780 (0.22%) were called active. All entries are inconclusive by the source's own rule. Clear calls are listed elsewhere. No stated cut-off is given here; in the data, active means inhibition above about 35% (passing the limit was not always enough); inconclusive means no clear call, values can overlap the other calls.

Tested on: Botulinum neurotoxin type F light chain protease (Clostridium botulinum)
Test: BoNT/F light chain protease inhibitors, primary screen, biochemical, flow cytometry, MLPCN library (AID 588497); further: plate controls were buffer without enzyme for full effect and enzyme alone for no effect
Conditions: Multiplex microsphere protease cleavage assay, at 10 µM, active compounds read high

SMILES	inhibition
CCN1CCC(Nc2ccc(Cl)cc2)CC1	inconclusive: -16.5%
CCOC(=O)N1CCC(Nc2cccc(C)c2)CC1	inconclusive: -18.9%
N#CC1(Nc2ccccc2)CCN(Cc2ccccc2)CC1	inconclusive: 6.8%
